# PubChem BioAssay AID504467 (National Center for Advancing Translational Sciences (NCATS), 2011)
# Hit rate of the full screen: of about 330,000 compounds, about 7,700 (2.3%) were called active. The inconclusive results got no clear call from the source; some entries with a clear call stand among them for comparison. Calls follow the shape of the dose curve; as a rule, active = well fitted inhibition curve with a large enough effect; inconclusive = small, poorly fitted or top-dose-only effect, or effect the other way; inactive = flat fitted curve, though single readings scatter. Potencies of inconclusive entries are doubtful fits and often do not repeat.
# Test: qHTS screen for small molecules that inhibit ELG1-dependent DNA repair in human embryonic kidney (HEK293T) cells expressing luciferase-tagged ELG1; also: nearly all actives have a fitted effect of over 55% in size
# Conditions: HEK293T ELG1-luciferase reporter, luminescence, 16 h, DNA damage induced by 5-fluorouridine; series mostly up to 46.1 µM
# Procedure, shortened: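 5-Fluorouridine DNA damage + compound/DMSO, 2,000 cells/well, 16 h, 37 °C/5% CO2. ONE-Glo, 30 min RT, luminescence. Readout = decrease in reporter signal.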
# Potency is read from the fitted curve at half-maximal effect.
row,SMILES,Potency
1,O=C(N/N=C/c1cc(Cl)cc([N+](=O)[O-])c1O)c1ccc2c(c1)OCO2,"inconclusive: 29.1 µM [activator, single point]"
2,Cc1ccc(C(=O)Nc2ccc(O)cc2C(=O)O)cc1C,inactive
3,Cc1cccc(NC(=O)c2cc3ccccc3oc2=O)c1,"inconclusive: 0.398 µM [activator, full curve, poor fit]"
4,CC1CC(C)CN(CCCNC(=O)c2csc3c2CCCCC3)C1 (configuration not stated),inactive
5,Cc1cc(N2CCCC2)n2nc(C)c(-c3ccccc3)c2n1,"inconclusive: 5.17 µM [activator, partial curve, poor fit]"
6,Cc1cc(C)c(NC(=O)Cn2nnc(C(=O)Nc3ccc(F)cc3F)c2N)c(C)c1,"inconclusive: 16.4 µM [activator, single point]"
7,O=C(COc1ccc(Cl)cc1)NCc1n[nH]c(=O)c2ccccc12,inactive
8,O=S1(=O)CC(NCc2ccccc2)C(Nc2ccccc2)C1 (configuration not stated),inactive
9,CCSc1oc(-c2ccco2)nc1S(=O)(=O)c1ccc(F)cc1,inactive
10,CCCCN1CN=C(Nc2nc3ccccc3o2)NC1,"inconclusive: 16.4 µM [activator, partial curve]"
11,CCC1=Nc2cc(C(=O)NCCCOC(C)C)ccc2Sc2ccccc21,"inconclusive: 32.6 µM [inhibitor, partial curve, poor fit]"
12,Brc1ccccc1-n1nnc(-c2cccnc2)n1,"inconclusive: 29.1 µM [activator, single point]"
13,CCn1nc(C(=O)NNC(=O)c2cc(Cl)ccc2OC)c2ccccc2c1=O,inactive
14,Cc1ccc(NC(=S)N(C)C(c2ccccc2)c2ccccc2)cc1C,active: 13 µM
15,CN(C(=O)c1ccc(COc2ccccc2Br)o1)c1ccccc1,inactive
16,Cc1nc2ccc(S(=O)(=O)Nc3ccc(-c4nc5cccnc5s4)cc3)cc2s1,"inconclusive: 14.6 µM [activator, partial curve]"
17,Cc1ccc(C(=O)Nc2c(C)cc(C)c3cccnc23)cc1,inactive
18,CSc1nsc(SCC(=O)Nc2cccc(NC(C)=O)c2)n1,"inconclusive: 6.51 µM [activator, full curve, poor fit]"
19,C/C(=N\NC(=O)c1ccccn1)C12CC3CC(CC(C3)C1)C2,"inconclusive: 18.4 µM [activator, partial curve]"
20,C/C(=N\NC(=O)c1ccc(Cn2cc(Br)cn2)o1)c1cccc(NC(=O)C(C)(C)C)c1,"inconclusive: 11.6 µM [inhibitor, partial curve]"
21,CC(NC(=O)c1ccc(Br)o1)C1CC2CCC1C2 (configuration not stated),inactive
22,COCC(C)n1c(C)cc(C(=O)COC(=O)c2oc3ccccc3c2C)c1C (configuration not stated),"inconclusive: 29.1 µM [inhibitor, single point]"
23,CC(Sc1ncccn1)C(=O)Nc1ccc2c(c1)OCCO2 (configuration not stated),"inconclusive: 16.4 µM [activator, single point]"
24,CCOC(=O)C1=C(C)N(C[C@@H]2CC[C@@H](Cc3ccc(-c4ccccc4)cc3)O2)C(=O)NC1c1ccc([N+](=O)[O-])cc1 (some centres not stated),inactive

row,SMILES,Potency
1,Cc1ccc(-c2noc(CCC(=O)N(C)c3ccccc3C)n2)cc1,"inconclusive: 22.4 µM [inhibitor, partial curve, poor fit]"
2,CCn1cc(C2Nc3ccccc3C(=O)N2O)c(C)n1 (configuration not stated),"inconclusive: 20.6 µM [activator, single point]"
3,COc1ccc2cc1Oc1ccc(cc1)C[C@H]1c3c(cc(OC)c4c3Oc3c(ccc5c3[C@H](C2)N(C)CC5)O4)CCN1C,"inconclusive: 20.6 µM [inhibitor, single point]"
4,O=C(NCC(=O)N1CCN(S(=O)(=O)c2ccc3c(c2)OCCO3)CC1)c1ccccc1Cl,inactive
5,C=CCNC(=O)CSc1nnc(-c2ccccc2Cl)n1-c1c(C)n(C)n(-c2ccccc2)c1=O,"inconclusive: 1.16 µM [activator, full curve, poor fit]"
6,C[C@H](NC(=O)c1nc[nH]c1C(=O)NCC(=O)OCc1ccccc1)c1ccccc1,inactive
7,COc1ccccc1NS(=O)(=O)c1cc(NC(=O)c2cc[n+]([O-])cc2)ccc1N1CCCC1,inactive
8,CC(=O)Nc1cccc(-c2cnc3ccccc3n2)c1,"inconclusive: 9.2 µM [activator, partial curve]"
9,COc1ccc(S(=O)(=O)N2CCN(C(=S)NC3CCCCC3)CC2)cc1,inactive
10,CC(C)=CC(=O)Nc1ccc(Cl)cc1,"inconclusive: 9.2 µM [activator, partial curve]"
11,C=CCn1c(C)cc(C(=O)CN2C(=O)c3ccccc3S2(=O)=O)c1C,"inconclusive: 16.4 µM [inhibitor, partial curve, poor fit]"
12,NNC(=S)Nc1ccccc1Cl,"inconclusive: 7.3 µM [activator, partial curve]"
13,O=C(CCc1ccc(S(=O)(=O)NCc2ccccc2)cc1)NCc1ccco1,inactive
14,CCc1ccc(NC(=O)[C@H](NC(=O)[C@@H]2Cc3ccccc3CN2)c2ccccc2)cc1,"inconclusive: 16.4 µM [activator, partial curve]"
15,CCOc1ccc(C(=O)Nc2nnc(NC(=S)Nc3ccccc3)s2)cc1,inactive
16,CN(c1ccc(F)cc1)S(=O)(=O)c1ccc(Cl)c(C(=O)OCC(=O)NC2CC2)c1,inactive
17,Cc1ccc2[nH]c(CNC(=O)c3ccc(F)cc3)cc2c1,"inconclusive: 13 µM [activator, partial curve, poor fit]"
18,CN(C)C(=S)NC(=NCc1ccc([N+](=O)[O-])cc1)c1ccccc1,inactive
19,O=C(CCNS(=O)(=O)c1ccc(Br)s1)NCc1ccccc1,"inconclusive: 0.58 µM [activator, single point]"
20,c1ccc(Cn2nnc(-c3ccccc3)n2)cc1,"inconclusive: 18.4 µM [activator, single point]"
21,O=C(O)c1ccc(N2C(=O)/C(=C\c3ccccc3)N=C2c2ccccc2)cc1,inactive
22,COCCNCc1ccc(Cl)cc1Cl,"inconclusive: 29.1 µM [inhibitor, single point]"
23,O=C(CN1CCC(n2nnc3cc(C(F)(F)F)ccc32)CC1)NCc1cccs1,"inconclusive: 20.6 µM [inhibitor, partial curve]"
24,Cc1ccc(CNC(=O)c2cccc3c2C(=O)c2ccc(N4CCOCC4)cc2S3(=O)=O)cc1,active: 11.6 µM

# Looked up by compound from the entries so far:
row,SMILES,Potency
2,CCn1cc(C2Nc3ccccc3C(=O)N2O)c(C)n1 (configuration not stated),"inconclusive: 20.6 µM [activator, single point]"
23,CC(Sc1ncccn1)C(=O)Nc1ccc2c(c1)OCCO2 (configuration not stated),"inconclusive: 16.4 µM [activator, single point]"
24,CCOC(=O)C1=C(C)N(C[C@@H]2CC[C@@H](Cc3ccc(-c4ccccc4)cc3)O2)C(=O)NC1c1ccc([N+](=O)[O-])cc1 (some centres not stated),inactive
19,C/C(=N\NC(=O)c1ccccn1)C12CC3CC(CC(C3)C1)C2,"inconclusive: 18.4 µM [activator, partial curve]"

# Later entries:

row,SMILES,Potency
1,Cc1cc(C)nc(NC(N)=NC2CCCCC2)n1,"inconclusive: 32.6 µM [inhibitor, partial curve, poor fit]"
2,COc1ccc2[nH]c(C(=O)O)c(NS(=O)(=O)c3ccc(C)cc3C)c2c1,inactive
3,CN(C)c1cc[n+](CC(=O)c2ccc(Br)cc2)cc1,active: 9.2 µM
4,O=C(c1ccc(-c2ccc([N+](=O)[O-])cc2)o1)N1CCN(S(=O)(=O)c2cccs2)CC1,"inconclusive: 6.51 µM [inhibitor, single point]"
5,COc1ccc(Cc2nnc(SCC(=O)NC(C)c3ccccc3)o2)cc1 (configuration not stated),inactive
6,CN(c1ccccc1)S(=O)(=O)c1ccc(C(=O)Nc2ncccc2O)cc1,inactive
7,Cc1nc2scc(-c3ccccc3)c2c(=O)n1N=C1C=CC(=O)C=C1,"inconclusive: 18.3 µM [activator, partial curve]"
8,COCC(=O)N1CCc2ccc(NC(=O)c3ccccc3Cl)cc2C1,"inconclusive: 5.8 µM [activator, partial curve, poor fit]"
9,COc1cc(C(=O)NCC(=O)NNC(=O)C2COc3ccccc3O2)cc(OC)c1OC (configuration not stated),inactive
10,O=C(O)CCc1nn2c3ccccc3n(CC(=O)c3ccccc3)c2nc1=O,"inconclusive: 20.6 µM [activator, partial curve, poor fit]"
11,O=C(Nc1cccc2c1C(=O)NC2=O)c1ccccc1[N+](=O)[O-],inactive
12,COc1ccc(S(=O)(=O)Nc2ccc3c(c2)C(=O)N([C@@H](C)CO)C[C@H](C)[C@H](CN(C)CC2CC2)O3)cc1,inactive
13,COc1ccccc1-c1sc2cc3c(cc2c1-c1ccc2c(c1)OCO2)OCO3,"inconclusive: 16.4 µM [activator, partial curve]"
14,CCc1cc2c(=O)n(CC(C)C)cnc2s1,"inconclusive: 18.4 µM [activator, partial curve]"
15,CSc1sccc1/C=N/O,inactive
16,Fc1ccc(-c2cnc3n2CCCCC3)cc1,"inconclusive: 23.1 µM [inhibitor, partial curve]"
17,C[C@@H]1CN([C@@H](C)CO)C(=O)Cc2cc(NC(=O)Nc3ccc(F)cc3)ccc2O[C@@H]1CN(C)Cc1ccc(Cl)c(Cl)c1,"inconclusive: 18.3 µM [inhibitor, single point]"
18,CCc1ccc(Oc2coc3cc(OCC(=O)Nc4cc(C)ccc4C)ccc3c2=O)cc1,inactive
19,O=C(NCc1ccccc1Cl)C1CCCN(c2ncnc3c2nc2n3CCCCC2)C1 (configuration not stated),"inconclusive: 23.1 µM [inhibitor, partial curve, poor fit]"
20,COc1cccc(Nc2n[nH]c(=S)s2)c1,"inconclusive: 2.91 µM [activator, full curve]"
21,CCOc1cc(CNCCO)cc(Br)c1OCc1cccs1,inactive
22,CC(C)c1ccc(C(=O)OCC(=O)NC2CCCC2)cc1,"inconclusive: 18.3 µM [activator, partial curve, poor fit]"
23,C=C(C)COc1ccc(-c2nc(N)nc(C(F)(F)F)c2-c2ccc(OC)cc2)c(O)c1,"inconclusive: 29.1 µM [inhibitor, single point]"
24,Cc1nn(Cc2cccc(C(=O)Nc3ccn(Cc4ccccc4)n3)c2)c(C)c1[N+](=O)[O-],"inconclusive: 18.4 µM [inhibitor, single point]"
